Measured values as given in the supplement of paper PMC5949888.
Most values lie at the floor of the assay. Slopes are relative: functional sequences can read slightly below zero.

System: Saccharomyces cerevisiae PS128 hsf1 delta, HSF1(1-493) fusion
Assay: growth estimate (transactivation domain function in HSF1 fusion, heat-shock survival) (a.u. (slope of normalised read count over time)); higher = stronger growth at 37°C, i.e. more transactivation activity
Settings: library: random library
Method: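 Random 60-nt DNA library encoding peptides of up to 20 aa, fused to the C-terminus of yeast HSF1 residues 1-493 (C-terminal TAD deleted) and expressed from the native HSF1 promoter on a CEN plasmid in hsf1-deleted S. cerevisiae PS128. Cells were selected at 37°C on -trp 5-FOA plates for 0, 2, 4, 6 and 8 days and amplicons were sequenced. Growth estimate is the slope of a robust linear fit of total-sum-normalised read counts (normalised to the first time point) over time, using at least 2 replicates. Sequences are classed functional (TAD activity) above a threshold of -0.13, set from stop-codon control sequences.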

| Substance | growth estimate |
| --- | --- |
| VRENA | -0.246 |
| VVMGWGRLLYVMCQDLGTNR | < -0.25 |
| IRDVLLHGIALIFMRLENGV | < -0.25 |
| DLHAGRTVGDVLCNAMPSFD | < -0.25 |
| ACLNLLDSRQRKVRRVSKLG | < -0.25 |
| AYGDWEENWAKVIV | -0.227 |
| WCGVKGYGCCH | < -0.25 |
| DVAAPGRRDLEALSTVTFLG | < -0.25 |
| FAVGFDCAFRCRLGIMNREN | < -0.25 |
| ERGRRGLMDSFLCPRQ | < -0.25 |
| HSCQRLKCKHSQG | < -0.25 |
| VLLGFRKHVLLFPGGLVTRS | < -0.25 |
| MNGRVRGRRPLDSCFST | < -0.25 |
| AGLTLLSSRFPGPSSIGKIA | -0.248 |
| RTCGVLPPCDGGIVGHESLQ | < -0.25 |
| EHGLWIVS | < -0.25 |
| QPK | < -0.25 |
| FEFYGEAKWPG | < -0.25 |
| VSRAGWAEDRREVHCRLALL | < -0.25 |
| AIHALMQVYIPECCRYQGTV | -0.242 |
| PAKTLRITCTAVHNQG | < -0.25 |
| VVVRL | < -0.25 |
| MQGV | < -0.25 |
| KVRGIPWFP | < -0.25 |

| Substance | growth estimate |
| --- | --- |
| HRGMSALRT | < -0.25 |
| PRSDAL | < -0.25 |
| PWGSQDAHCARWCIFG | < -0.25 |
| AYTMNPGSHLRGRGPIRVLF | < -0.25 |
| LDVDLRRRDG | < -0.25 |
| GLAWPVTVGGAL | < -0.25 |
| LYCVGVTVTWS | < -0.25 |
| YIRPPAIRWITGLYYLLTGP | < -0.25 |
| RNSRLKPAKDADLGGFRRNC | < -0.25 |
| GFWESRITRARARGR | < -0.25 |
| SGAARNSEATDHQGPPTDGL | < -0.25 |
| DCI | < -0.25 |
| VRSSSGVSP | -0.246 |
| ESSNKVR | < -0.25 |
| VAGLENTRGLRVDLRHLEGD | < -0.25 |
| LKCEFLDRVLVRERVPARIQ | < -0.25 |
| DYTPGSKRTGHMSQKVQQRP | < -0.25 |
| VGEDNRLFPSAGKFALA | < -0.25 |
| VACCNGSRLAQPFLAPSIEY | < -0.25 |
| GSIEGDY | < -0.25 |
| AENVANCQIVRKPFCLDPLN | < -0.25 |
| QCCGKLLNGRRANKAVRAR | < -0.25 |
| LMVLAMGNGYERPASPRFVY | < -0.25 |
| SVESRGRLCLRELCRLNARK | < -0.25 |

| Substance | growth estimate |
| --- | --- |
| VDLRTPVLAPTGRGVVCQSQ | < -0.25 |
| PYLAE | < -0.25 |
| LTPLL | < -0.25 |
| RALLGFGILRRRRHNREAVR | < -0.25 |
| LYVPVGWSAVASNTVEHGGT | < -0.25 |
| PEIVTCSGRVDRRQN | < -0.25 |
| GHGNIRR | < -0.25 |
| GPPKKREVKQVITHWGSTR | < -0.25 |
| ADYGE | < -0.25 |
| SSLAMIEHSVR | < -0.25 |
| DELCLVGGGKSLQLGNRRYG | < -0.25 |
| QNRILDEKHKLPYANPNIVL | < -0.25 |
| KGVIDD | < -0.25 |
| EHICRVVIARLTWVLRQV | < -0.25 |
| MGG | < -0.25 |
| VLMAKCLFTRMGGPF | < -0.25 |
| FFVKEGVSGRRPPPVTWTTP | < -0.25 |
| LYGTPLSRC | < -0.25 |
| GGRKKANIAASYGWD | < -0.25 |
| YLSLVEVVRWVLIICTLGAT | < -0.25 |
| VNSQR | < -0.25 |
| DRRDLVGMLHNEPQAPQQQP | < -0.25 |
| VETLCKYEPHECMCPVVDYW | < -0.25 |
| CGERSGASQMR | < -0.25 |

| Substance | growth estimate |
| --- | --- |
| LEPLW | < -0.25 |
| RVRRIITRKKSLVYYLRRQS | < -0.25 |
| RSEQIHVIKKPTQCGVISPQ | < -0.25 |
| RKSVVLMEEGEFSCGRETCT | < -0.25 |
| APPPLGTLTAETKRKTMEFR | < -0.25 |
| PSEPEETLAIDVISSCDALC | < -0.25 |
| EHNVPFASTASGTISMFLSN | < -0.25 |
| YEYRSLSELQQVFVFSVPMR | < -0.25 |
| SPIRRDGSSGSKMTNRNVSR | < -0.25 |
| EDLVRFRP | < -0.25 |
| STSGQTNLHSDIA | -0.246 |
| RTSPISTCERHCGLYVRL | < -0.25 |
| KRPLNRAQYKRLNLGSSIVL | < -0.25 |
| SRYKLRRGFSTATDG | < -0.25 |
| QLCSFQVPV | < -0.25 |
| VRQVGILGGD | < -0.25 |
| WHIPINFEGRRSYMKGGAQD | < -0.25 |
| HGVVADRKGGWLGSRCPRRL | < -0.25 |
| LCEVAHDNVSSDS | < -0.25 |
| GHPEPPLSEGISIGRLWVRE | < -0.25 |
| PNSRSLCSSQAACSPIPGSI | < -0.25 |
| PCRSDSE | < -0.25 |
| RETGDSSVRGVRTVSCKPTG | < -0.25 |
| YMHHRNSQGTNLTDWHLFWP | < -0.25 |

In another format: entries from further up
Substance | growth estimate
RTSPISTCERHCGLYVRL | < -0.25
KRPLNRAQYKRLNLGSSIVL | < -0.25

Next records:

| Substance | growth estimate |
| --- | --- |
| TGI | < -0.25 |
| SRVGKVIGC | < -0.25 |
| DVCVAGAECMCR | < -0.25 |
| AYCVSARRVRWRPPLDRFIL | < -0.25 |
| AESLISSWCSCAE | < -0.25 |
| YQNQRAEWIVRLACHASIRA | < -0.25 |
| VICSDRCCE | < -0.25 |
| GMKQIIRRRRGGLWPASNAA | < -0.25 |
| YALQGWEGRLLPYVDEGSLG | < -0.25 |
| TLRSMA | < -0.25 |
| NIAFRFVLAPTCSETDTDRT | < -0.25 |
| YKPGSGKPNMFASMVDAISL | < -0.25 |
| ANISQGIGGNAIPLQHQLEL | < -0.25 |
| CRRMYTDRRARTGPGTRSRL | < -0.25 |
| QSYVICYLVVTTRCASSLCV | < -0.25 |
| GLVPLWSDQPGFDYSARIAT | < -0.25 |
| ISYNPCEGGTRSKKNGVVSN | < -0.25 |
| NQSKSPVEC | < -0.25 |
| AIRDQGQKTYAVSSWHYIEW | < -0.25 |
| PEYSLWRWQCVSS | < -0.25 |
| EMLRELRTRAVPRATLVLDE | < -0.25 |
| GVISGWPGGGM | < -0.25 |
| HEIGGCRGISA | < -0.25 |
| GLRSMVAKIGMDPVVTSQRG | < -0.25 |

Reformatted with each value named: part of the list above.
GVISGWPGGGM
  growth estimate: < -0.25
HEIGGCRGISA
  growth estimate: < -0.25
GLRSMVAKIGMDPVVTSQRG
  growth estimate: < -0.25

Quoted from above for reference:

| Substance | growth estimate |
| --- | --- |
| DELCLVGGGKSLQLGNRRYG | < -0.25 |
| QNRILDEKHKLPYANPNIVL | < -0.25 |

The list continues.

| Substance | growth estimate |
| --- | --- |
| PNVGHLLSVGSRVNLELTPW | < -0.25 |
| NGKLRHMHFRFLG | -0.246 |
| WKGRRARLHWAYSLADETVQ | < -0.25 |
| METYRSRKGRATI | < -0.25 |
| CQGS | < -0.25 |
| CKVEWDTGTLYRSPIHW | < -0.25 |
| GNLQLNDGSYQRVLKQ | < -0.25 |
| LTSYYPGTQFTSPFLPAVLC | < -0.25 |
| QGWRPRNEDR | < -0.25 |
| RTFCIGGID | < -0.25 |
| RTLYGAHGVSWRNLTGQNIR | < -0.25 |
| TSGGSGGARHNPAVRLWSPG | < -0.25 |
| VFFL | < -0.25 |
| HRVFIQTS | < -0.25 |
| GCQLKARVLLHWASRRCVSV | < -0.25 |
| LIFLGGQRA | -0.232 |
| GTNQWRIRARAVPQGFSRNR | < -0.25 |
| QLDE | < -0.25 |
| VMP | < -0.25 |
| HRIEDTSVGAQVPYIEGCRP | < -0.25 |
| RERGTSFASLLPSAVPLA | -0.205 |
| RISACARGQSAGGGSVGIGG | < -0.25 |
| AVLPRLVPVIALAISGDVR | < -0.25 |
| YPIFL | -0.25 |

| Substance | growth estimate |
| --- | --- |
| GGLVLPHQVLISQIWVGTDY | < -0.25 |
| FGLSTRLIVSFVVQVQGRTP | < -0.25 |
| IGILPNSMHRWDLH | < -0.25 |
| TNGKLGHEVSILCWRDALGR | < -0.25 |
| ALMCMREKTVDFPFVCPVDK | < -0.25 |
| RCLPTRRK | < -0.25 |
| AESWNPAGKAIWEENSG | < -0.25 |
| RSDPWHF | < -0.25 |
| KQVAGSGHLGDR | < -0.25 |
| TTGI | < -0.25 |
| LTTHNKLRHAPGLRMCSETA | -0.246 |
| VLASQDDIVGPRSARPVAIS | < -0.25 |
| VPLVCLRWGKVGL | < -0.25 |
| YVASLNPVAGRTPSPQGWEM | < -0.25 |
| TQGPT | < -0.25 |
| IGSSGEW | < -0.25 |
| ICRAKYGVLTQDC | -0.245 |
| RTPAGPLFDLGFPNKLRIKE | < -0.25 |
| VNSANRGMLVRTES | < -0.25 |
| IFAGSCLLRVDTSRH | < -0.25 |
| VSRYSGIDSVTAY | < -0.25 |
| TGLNP | < -0.25 |
| LTAYAFELAIEGDRHPYAT | < -0.25 |
| CSRELNRERVGGKSRVVICG | < -0.25 |

| Substance | growth estimate |
| --- | --- |
| AFWCL | < -0.25 |
| AETKKKV | -0.245 |
| NCGEITFP | < -0.25 |
| HFDPFVPPNSGYPDGP | < -0.25 |
| RCVLVWTQPGNRCWGSEESC | < -0.25 |
| PGSTASRNSRIVYLHCERPR | < -0.25 |
| GTFIGTLAEFSR | < -0.25 |
| IEQRSCVTDELG | < -0.25 |
| KGEGQGEVPSAYRVVVLSVT | < -0.25 |
| HVDSFHYLGSLSGGAGILVL | < -0.25 |
| LLSVLYTFDCP | < -0.25 |
| VLWVSHVLNVKAVDIENGA | < -0.25 |
| CFVRGDTLLNAHVHIIFPRS | < -0.25 |
| GWPGDLCTFAHCWNNADVGH | < -0.25 |
| TVWSWLPDPVYRISPGDGYF | < -0.25 |
| ILRVFVLWGFSGANLSSLRG | < -0.25 |
| AMDMYVAWL | < -0.25 |
| LYIA | < -0.25 |
| QIQATWRPHDKFGRKFTMTP | < -0.25 |
| TGKF | < -0.25 |
| GHESSRLMVSTLRKRSQCWR | < -0.25 |
